The supplement of paper PMC3334620
Over roughly 33,000 sequences, “E-score (-0.5 to 0.5)” has its median near -0.015; the highest 2% begin near 0.3. This is one part of the list.

target: T1, Abf1 (UniProt P14164); assay: PBM E-score (8-mer binding enrichment) (E-score (-0.5 to 0.5)); higher = stronger / more preferred TF binding; conditions: protein concentration: 200 nM; construct: GST-full length
T1 sequence: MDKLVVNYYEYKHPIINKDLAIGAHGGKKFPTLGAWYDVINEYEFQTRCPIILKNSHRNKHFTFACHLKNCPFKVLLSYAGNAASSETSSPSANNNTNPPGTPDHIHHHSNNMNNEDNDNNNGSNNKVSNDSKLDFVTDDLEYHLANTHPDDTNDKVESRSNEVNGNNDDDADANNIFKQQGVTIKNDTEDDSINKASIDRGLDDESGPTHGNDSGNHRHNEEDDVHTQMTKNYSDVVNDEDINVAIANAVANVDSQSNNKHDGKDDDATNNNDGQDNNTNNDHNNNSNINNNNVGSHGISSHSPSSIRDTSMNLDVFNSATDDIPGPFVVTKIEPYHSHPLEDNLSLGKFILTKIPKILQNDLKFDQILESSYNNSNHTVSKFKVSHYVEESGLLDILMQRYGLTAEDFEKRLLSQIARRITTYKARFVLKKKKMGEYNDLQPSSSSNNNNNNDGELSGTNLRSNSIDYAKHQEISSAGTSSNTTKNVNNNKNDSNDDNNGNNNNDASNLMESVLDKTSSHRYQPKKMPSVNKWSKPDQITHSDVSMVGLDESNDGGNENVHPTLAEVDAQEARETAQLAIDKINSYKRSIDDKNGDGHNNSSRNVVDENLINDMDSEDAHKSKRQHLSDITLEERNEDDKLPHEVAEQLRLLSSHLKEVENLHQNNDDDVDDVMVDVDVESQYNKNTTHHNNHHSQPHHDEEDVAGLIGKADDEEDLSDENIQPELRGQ
How it was run: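 Full-length yeast transcription factors or their DNA-binding domains, GST-tagged and expressed with PURExpress, were applied at about 100-200 nM to universal all-10-mer Agilent arrays. These arrays had been made double-stranded by primer extension on fresh or once-stripped slides. Detection used fluorescent anti-GST, normalisation used masliner, and E-scores for ungapped eight-base words pooled with reverse complements came from the Universal PBM Analysis Suite.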

Row | Sequence | PBM E-score
1 | AGTGTGCA | -0.0286
2 | GTAGCGTA | -0.00254
3 | AGATGCAG | -0.0468
4 | AATTATCT | 0.109
5 | CTCTTATA | 0.086
6 | TCAATGGA | 0.0383
7 | ATACTTTG | 0.0635
8 | GGTCGTGA | 0.195
9 | GAGAACCC | -0.214
10 | GACCCCAC | -0.0324
11 | ACCTGACC | -0.107
12 | AAAAACAC | 0.159
13 | CAGTGCAC | -0.0903
14 | AAGAACAC | 0.0202
15 | AAATTGTG | -0.15
16 | AAGGCTGA | -0.115
17 | ACCGAACT | -0.149
18 | CTGGTTTC | -0.0524
19 | AGCACAAC | 0.0445
20 | CACGCTGA | 0.0322
21 | CAGCGCAG | -0.24
22 | CAAGACCC | -0.197
23 | AAGACTCG | 0.0329
24 | GACGCCTA | -0.14
25 | CCAGTGAA | -0.173

Part of the list above, as tab-separated lines.
Row	Sequence	PBM E-score
2	GTAGCGTA	-0.00254
7	ATACTTTG	0.0635

Following part.

Row | Sequence | PBM E-score
26 | CCGCGGCG | -0.13
27 | ACTTCATC | 0.0566
28 | GAAGGTAC | -0.0411
29 | AGGTCGTG | 0.2
30 | CGATTGTC | 0.118
31 | CAAAAGCC | -0.186
32 | AATACAGC | -0.00478
33 | CTGATCGA | -0.213
34 | TCCCCAAA | -0.0039
35 | AGGCCACA | -0.155
36 | ATCCCTCG | -0.17
37 | AGGTAATA | 0.161
38 | GTGGCCCA | -0.163
39 | CTGCATAA | 0.0396
40 | AAAGCCTT | -0.219
41 | CGTGATAA | 0.408
42 | GAGGCCAC | -0.226
43 | AGTTCACC | 0.245
44 | GTTTGGTA | 0.113
45 | CCTCACAG | -0.0389
46 | ATTCTTCG | 0.073
47 | CAATGATA | 0.322
48 | CCTAGCAG | -0.101
49 | CTACGCAA | -0.0747
50 | AGTCTTAT | -0.0876

Row | Sequence | PBM E-score
51 | AGTTTACG | 0.113
52 | GTTGGTTA | 0.0495
53 | AGCCACGA | 0.0221
54 | CACCTGGG | -0.156
55 | AGTGATGG | 0.056
56 | ACTTAGTG | 0.144
57 | AGGCCATA | -0.244
58 | AGGATAAC | 0.0176
59 | ATCGATAC | 0.111
60 | CCATCGAC | -0.0625
61 | ATGGTAAC | 0.179
62 | TAGAAAAA | -0.0291
63 | AACTATGA | -0.0323
64 | GAACGTCC | 0.019
65 | CCCGCAGC | -0.237
66 | CTATCTGC | -0.13
67 | GGGAAATA | 0.0587
68 | GCCACGTA | 0.0352
69 | GATCGCAA | 0.118
70 | GGCAGTTA | 0.101
71 | CAACGGCA | 0.138
72 | AAATGAAC | -0.12
73 | CGCGGTCC | -0.233
74 | CATGCTTC | -0.0333
75 | CAGCTACG | -0.0204

Row | Sequence | PBM E-score
76 | GTCATTAA | 0.385
77 | GACAGATA | 0.0295
78 | CAGACGAA | 0.324
79 | CGCTTCGA | 0.00313
80 | GGCCAGAA | -0.0972
81 | AAACCGCG | -0.0683
82 | CGAGCAAA | 0.179
83 | CCGAGATA | 0.0419
84 | ACTACTTA | 0.209
85 | TCCCGGGA | -0.231
86 | CCTCGGCA | -0.0984
87 | ACAACAAA | 0.127
88 | CTCTGGAA | 0.00186
89 | CACTGGAC | 0.171
90 | GCGCCTGA | -0.0596
91 | ATAGGGAT | 0.0162
92 | AAGCACCG | -0.0865
93 | CTTGCTTC | -0.101
94 | AGTTCATA | -0.139
95 | GTCACAAC | 0.212
96 | GCGAGGAC | -0.164
97 | CGACGGAA | 0.0999
98 | CCACACAC | -0.164
99 | AGAAATCA | 0.247
100 | CCCCTAGA | 0.0173

Quoted at random: four records from the list
Row | Sequence | PBM E-score
86 | CCTCGGCA | -0.0984
82 | CGAGCAAA | 0.179
88 | CTCTGGAA | 0.00186
84 | ACTACTTA | 0.209

Exported as labelled records: entries from further up.
CCGAGATA
  PBM E-score: 0.0419
ACTACTTA
  PBM E-score: 0.209
TCCCGGGA
  PBM E-score: -0.231
CCTCGGCA
  PBM E-score: -0.0984

(listing goes on)

Row | Sequence | PBM E-score
101 | ATGGAAAT | 0.0131
102 | GGGATACA | -0.0572
103 | GGCAGCGA | -0.143
104 | ACCGAGGC | -0.116
105 | GACGGTCA | 0.018
106 | GGTCTCGA | 0.0265
107 | CTCCGGAC | 0.0268
108 | AACGCGCG | 0.204
109 | CCGTCCAG | 0.0522
110 | GTGCCATA | -0.14
111 | GATGATGC | 0.152
112 | GCTAAGCC | -0.231
113 | CCGCGTAG | -0.167
114 | TAACGCAA | 0.176
115 | GGATACTA | 0.0897
116 | GAACGTTA | -0.0439
117 | ACACAGGC | -0.265
118 | GGAACCAA | -0.124
119 | GATCCCCC | -0.176
120 | AAGAGTGG | -0.273
121 | CATTACGG | 0.0863
122 | GGTCTAGA | -0.0801
123 | GCGCATAC | 0.0236
124 | CACGGTAA | 0.109
125 | ATCTAAAG | -0.103

Row | Sequence | PBM E-score
126 | CTTAGGCC | -0.169
127 | AGTTGCCG | -0.12
128 | CCGTTCAG | 0.0329
129 | CCTTTTCG | 0.121
130 | ACGTCTAA | 0.196
131 | CTCCTCAA | -0.262
132 | CGCTAGCC | -0.0921
133 | GTTCCCAA | 0.036
134 | CCGATATA | 0.0343
135 | CTCCCCAA | -0.135
136 | AATTATTA | 0.251
137 | GCGCAACC | -0.102
138 | CGCAACAC | -0.131
139 | AAGTCGGG | -0.122
140 | CCCAGTGA | -0.119
141 | GACTTTGA | 0.0441
142 | ATAATATC | 0.281
143 | CGTTGGTA | 0.256
144 | ACCGCCCG | -0.221
145 | CCCAGTTA | -0.2
146 | CACATGTA | 0.0379
147 | AGTCTCAT | -0.0453
148 | CTGTATTA | 0.0565
149 | CTATTGGA | 0.178
150 | CTAGGGAA | -0.0615

Row | Sequence | PBM E-score
151 | CTCGACAC | -0.0144
152 | GTCACCGA | 0.284
153 | GGATAGTA | 0.129
154 | CTGATTAC | 0.253
155 | ACATGCAC | -0.00189
156 | CCGTAGGC | 0.026
157 | GACAGCCC | -0.139
158 | TATTAGCA | 0.068
159 | CCCCATCG | -0.0893
160 | CGGACATA | 0.0662
161 | ATACGGCC | 0.208
162 | CGACTCCA | -0.217
163 | GGTCGATA | 0.0222
164 | GAGATGAC | 0.141
165 | AACCAGAC | -0.0734
166 | CCATCTGC | 0.0477
167 | GCCAAATA | 0.0494
168 | GCCGATCC | -0.254
169 | GTGGTGCA | -0.209
170 | AGTGCAAC | -0.0826
171 | GAGCATCC | -0.0798
172 | CGCAATAC | 0.0749
